Laboratory results as given in article PMC6265447, “The bacterial Mre11–Rad50 homolog SbcCD cleaves opposing strands of DNA by two chemically distinct nuclease reactions” (Nucleic Acids Research, 2018).
These are yes or no findings as the source states them, for the method shown.

Target: SbcD^V68D nuclease and capping domain (E. coli) (UniProt P0AG76)
Assay: SEC with right-angle light scattering (RALS); SbcD nuclease and capping domain alone, in the absence of SbcC; both purified

binding: no binding
B1: SbcD^V68D nuclease and capping domain (domain or fragment, UniProt P0AG76 1-340)
chain: MRILHTSDWHLGQNFYSKSREAEHQAFLDWLLETAQTHQVDAIIVAGDVFDTGSPPSYARTLYNRFVDNLQQTGCHLVVLAGNHDSVATLNESRDIMAFLNTTVVASAGHAPQILPRRDGTPGAVLCPIPFLRPRDIITSQAGLNGIEKQQHLLAAITDYYQQHYADACKLRGDQPLPIIATGHLTTVGASKSDAVRDIYIGTLDAFPAQNFPPADYIALGHIHRAQIIGGMEHVRYCGSPIPLSFDECGKSKYVHLVTFSNGKLESVENLNVPVTQPMAVLKGDLASITAQLEQWRDVSQEPPVWLDIEITTDEYLHDIQRKIQALTESLPVEVLLVRR
